PubChem BioAssay AID1671195 – Yale University, 2021
The whole screen tested about 22,000 reagents; below is a random part of them. Over the whole deposit, about 1,510 (6.9%) are marked active. 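Active includes knockdowns raising or lowering LDL uptake; positive z-scores mean more uptake, negative mean less.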

Aim: 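Genes whose knockdown alters LDL uptake in liver cancer cells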 (primary screen)
Cells: human Huh7 hepatoma cells
Reagents: siRNA pool against human genes, 18 nM
Timing: about 2 to 2.5 days of knockdown, then 8 h LDL uptake
Challenge: DiI-labelled LDL at 30 µg/ml for 8 h, in lipoprotein-deficient serum medium
Read-out: 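Per-cell DiI-LDL intensity by automated imaging; well means scaled to the plate median and given as a robust z-score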
Reading the numbers: robust z-score: higher = more LDL uptake after knockdown
Active means: 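a gene counts as active if at least two replicate z-scores exceed ±2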

| Target gene | robust z-score, replicate 1 | robust z-score, replicate 2 | robust z-score, replicate 3 | Outcome |
| --- | --- | --- | --- | --- |
| LRRC52 (leucine rich repeat containing 52) | 0.403 | 0.536 | 0.394 | inactive |
| MYT1L (myelin transcription factor 1 like) | 0.502 | 0.358 | 0.246 | inactive |
| LOC200491 (retired record) | -0.154 | -1.27 | -0.823 | inactive |
| RPL19P10 (ribosomal protein L19 pseudogene 10) | 0.648 | 0.697 | 0.734 | inactive |
| LAMTOR5 (late endosomal/lysosomal adaptor, MAPK and MTOR activator 5) | 0.886 | 0.752 | 1.23 | inactive |
| PRR18 (proline rich 18) | -0.215 | 0.213 | 0.422 | inactive |
| ERP44 (endoplasmic reticulum protein 44) | 0.0799 | 0.519 | -0.072 | inactive |
| H2AC17 (H2A clustered histone 17) | 0.751 | -1.54 | -0.615 | inactive |
| DMWD (DM1 locus, WD repeat containing) | -0.0555 | 0.52 | -1.22 | inactive |
| ZSCAN16 (zinc finger and SCAN domain containing 16) | -0.27 | -0.412 | -1.03 | inactive |
| LGALS8 (galectin 8) | -0.543 | 0.38 | 0.226 | inactive |
| P4HB (prolyl 4-hydroxylase subunit beta) | 0.805 | 0.197 | 1.8 | inactive |
| PIGR (polymeric immunoglobulin receptor) | -0.422 | -0.375 | -1.14 | inactive |
| SEPTIN7 (septin 7) | -0.665 | 0.146 | -0.00189 | inactive |
| GUCY1B1 (guanylate cyclase 1 soluble subunit beta 1) | -0.166 | 1.83 | 0.363 | inactive |
| PLPPR3 (phospholipid phosphatase related 3) | -1.72 | -1.76 | -1.52 | inactive |
| DTNBP1 (dystrobrevin binding protein 1) | -0.81 | -1.23 | -0.316 | inactive |
| RAB11A (RAB11A, member RAS oncogene family) | 1.21 | 1.07 | 0.324 | inactive |
| PHYHIPL (phytanoyl-CoA 2-hydroxylase interacting protein like) | -0.933 | -0.515 | -0.0626 | inactive |
| LOC391265 (retired record) | 2.18 | 1.94 | 1.94 | active |
| ODF2L (outer dense fiber of sperm tails 2 like) | 0.175 | -0.951 | 0.0802 | inactive |
| MSX1 (msh homeobox 1) | 0.116 | 0.581 | 0.732 | inactive |
| LOC441651 (retired record) | 5.32 | 6.38 | 5.6 | active |
| WDR87 (WD repeat domain 87) | -0.174 | 1.03 | 0.92 | inactive |
| MAF1 (MAF1 negative regulator of RNA polymerase III) | -1.5 | -0.88 | -1.69 | inactive |
| ZNF292 (zinc finger protein 292) | 1.5 | 0.673 | 0.857 | inactive |
| PACRG (parkin coregulated) | -1.34 | 0.163 | 0.329 | inactive |
| MSMO1 (methylsterol monooxygenase 1) | -0.977 | 0.0658 | -1.43 | inactive |
| SEZ6L2 (seizure related 6 homolog like 2) | 3.73 | 3.05 | 3.27 | active |
| FHOD1 (formin homology 2 domain containing 1) | 1.08 | 0.654 | 1.9 | inactive |
| SELENOV (selenoprotein V) | -0.789 | -1.07 | -0.964 | inactive |
| AGT (angiotensinogen) | -0.205 | 0.415 | -0.379 | inactive |
| LOC440939 (retired record) | -0.375 | -0.613 | -0.583 | inactive |
| MOSMO (modulator of smoothened) | -0.681 | -0.874 | -1.1 | inactive |
| OR10A5 (olfactory receptor family 10 subfamily A member 5) | -1.82 | -0.878 | -1.58 | inactive |
| LOC389624 (retired record) | -0.157 | 0.0873 | -0.0807 | inactive |
| NAA25 (N-alpha-acetyltransferase 25, NatB auxiliary subunit) | 0.231 | 0.82 | 0.407 | inactive |
| TFRC (transferrin receptor) | -0.499 | -0.834 | -0.967 | inactive |
| RBAK (RB associated KRAB zinc finger) | -0.59 | -1.07 | 1.45 | inactive |
| PSMD5 (proteasome 26S subunit, non-ATPase 5) | 0.0651 | 0.162 | -0.214 | inactive |
| LOC441379 (retired record) | -0.872 | -1.77 | -1.2 | inactive |
| LCN8 (lipocalin 8) | -0.713 | -1.32 | 0.507 | inactive |
| FBXO33 (F-box protein 33) | -0.773 | -0.452 | -0.801 | inactive |

4 successive records from above:
| Target gene | robust z-score, replicate 1 | robust z-score, replicate 2 | robust z-score, replicate 3 | Outcome |
| --- | --- | --- | --- | --- |
| MAF1 (MAF1 negative regulator of RNA polymerase III) | -1.5 | -0.88 | -1.69 | inactive |
| ZNF292 (zinc finger protein 292) | 1.5 | 0.673 | 0.857 | inactive |
| PACRG (parkin coregulated) | -1.34 | 0.163 | 0.329 | inactive |
| MSMO1 (methylsterol monooxygenase 1) | -0.977 | 0.0658 | -1.43 | inactive |

The list goes on:
| Target gene | robust z-score, replicate 1 | robust z-score, replicate 2 | robust z-score, replicate 3 | Outcome |
| --- | --- | --- | --- | --- |
| DCPS (decapping enzyme, scavenger) | 2.42 | 0.198 | 1.64 | inactive |
| RAB14 (RAB14, member RAS oncogene family) | -0.321 | -0.163 | 0.0527 | inactive |
| SASS6 (SAS-6 centriolar assembly protein) | 1.79 | 2.14 | 2.19 | active |
| GEMIN4 (gem nuclear organelle associated protein 4) | -0.462 | -0.485 | -0.217 | inactive |
| MYL12BP3 (MYL12B pseudogene 3) | 2.67 | 2.48 | 2.52 | active |
| SPATA20 (spermatogenesis associated 20) | -0.072 | 0.786 | 0.555 | inactive |
| GEMIN6 (gem nuclear organelle associated protein 6) | 0.622 | 0.347 | 0.963 | inactive |
| SLC28A3 | -0.651 | -0.941 | -0.33 | inactive |
| CACNA2D2 | 4.05 | 4.02 | 3.07 | active |
| ERVK-6 (endogenous retrovirus group K member 6, envelope) | -0.0793 | -0.294 | -0.616 | inactive |
| PAX3 (paired box 3) | 2.22 | 2.06 | 2.37 | active |
| KANSL1 (KAT8 regulatory NSL complex subunit 1) | -0.717 | -0.42 | -0.814 | inactive |
| GPR21 (G protein-coupled receptor 21) | -1.15 | -1.33 | -1.02 | inactive |
| LCP2 (lymphocyte cytosolic protein 2) | 0.608 | 0.41 | 1.17 | inactive |
| LOC400623 (retired record) | 0.769 | 0.895 | 1.29 | inactive |
| DOC2GP (double C2 domain gamma, pseudogene) | -0.714 | -0.548 | -1.05 | inactive |
| JARID2 (jumonji and AT-rich interaction domain containing 2) | -1.69 | -1.46 | -1.49 | inactive |
| LOC440451 (retired record) | -0.267 | 0.0769 | -0.00267 | inactive |
| MIR646HG (MIR646 host gene) | 1.96 | 1.91 | 1.44 | inactive |
| CTAGE15 (CTAGE family member 15) | 0.553 | -1.27 | -0.655 | inactive |
| ZNF594 (zinc finger protein 594) | 0.0941 | 0.283 | -0.266 | inactive |
| TMCO6 (transmembrane and coiled-coil domains 6) | -1.33 | -0.67 | 0.439 | inactive |
| MRFAP1L1 (Morf4 family associated protein 1 like 1) | -0.331 | -0.218 | -0.325 | inactive |
| LOC389413 (retired record) | -2.23 | -2.33 | -2.19 | active |
| TK2 (thymidine kinase 2) | -1.17 | 3.4 | -0.336 | inactive |
